Laboratory results as given in patent publication US20230181673A1, “TRI-PEPTIDES AND TREATMENT OF METABOLIC, CARDIOVASCULAR AND INFLAMMATORY DISORDERS” (Diapin Therapeutics, LLC, priority 2018, published 2023).

Test system: liver transcriptome
Format: in vivo, mice
Settings: NASH-diet; leucine 0.17 or glycine 0.33 mg/g/day
Method: Library preparation and sequencing were performed by the U-M DNA Sequencing Core on a NovaSeq 6000 Sequencing System (Illumina). RNA-sequencing and pathway analyses were performed as described.
Total RNA from mouse liver samples was extracted as described above. Library preparation and sequencing were performed by the University of Michigan DNA Sequencing Core. RNA was assessed for quality using the TapeStation (Agilent, Santa Clara, Calif.). […] Final libraries were checked for quality and quantity by TapeStation (Agilent) and qPCR using Kapa's library quantification kit for Illumina Sequencing platforms (Kapa Biosystems, KK4835). […]
The quality of the raw Fastq files was checked through FastQC v0.11.8 (https://www.bioinformaties.babraham.ac.uk/projects/fastqc/). Trimmomatic v.0.35 was used to trim the low-quality reads with the parameters: SLIDINGWINDOW:4:20 MINLEN:25.12 The resulted high-quality reads were then mapped to the mouse reference genome (GRCm38.90) using HISAT2 v.2.1.0.13 Gene level quantification was performed using HTSeq-counts v0.6.0 based on the GRCm38.90 genome annotations.14 The R package DESeq2 was then used to identify significant differentially expressed genes. […] 16 The significance of the enrichment was determined by right-tailed Fisher's exact test followed by Benjamini-Hochberg multiple testing adjustment. […]

NCC(=O)O [glycine, reference compound]
PCA of liver gene expression profile: intermediate patterns

CC(C)C[C@H](N)C(=O)O [leucine]
PCA of liver gene expression profile: clustered with H2O controls
